Measurements from PubChem BioAssay AID248 (DTP/NCI, 2004).
The list does not hold the whole screen: it is rich in T/C values a quarter to a half above the control, in often repeated tests (any T/C) and in doses without a T/C. Other doses and runs of a compound stand elsewhere. T/C: endpoint of the treated group in % of that of the vehicle group. Some entries give survivors of the animals treated and no T/C: the source holds a T/C of zero for them, seemingly a mark for toxic or unscored doses. Some doses without a T/C left all or most animals alive at the check, yet need not have been tolerated: the source hardly ever lists a survival T/C far under the control, and the zero likely stands for such cases as well. Counts of survivors are from the toxicity check (mostly the fifth day) where no day follows; animals may have died later. Schedules are NCI's codes, read here as Q, the interval in days (D) or hours (H), X, the number of doses. Some schedules carry Z or #; the key to these is not given. Some entries hold several experiments; their values stand side by side, smallest first. For survival time, this PubChem deposit counts one and a half times the control or more as active, and values a quarter to a half above the control carry no call in these data; other NCI protocols may use other cut-offs. Some T/C values carry the count of animals alive at the toxicity check (mostly the fifth day); where none is given, no animal had died by that day.

Test system: L1210 leukemia ip in BDF1 mice, survival T/C
Assay: NCI In Vivo Anticancer Drug Screen. Data for tumor model L1210 Leukemia (intraperitoneal) in B6D2F1 (BDF1) mice
Details: T/C endpoint: mean survival time, higher T/C = longer survival
[1] = dose: 200.0 mg/kg/injection, schedule: Q01DX009 (ip), vehicle: Klucel (hydroxypropylcellulose) (HPC)
[2] = dose: 400.0 mg/kg/injection, schedule: Q04DX002 (ip), vehicle: saline with Tween-80
[3] = dose: 300.0 mg/kg/injection, schedule: Q01DX001 (ip), vehicle: saline
[4] = dose: 600.0 mg/kg/injection, schedule: Q01DX009 (ip), vehicle: saline
[5] = dose: 200.0 mg/kg/injection, schedule: Q04DX003 (ip), vehicle: saline
[6] = dose: 400.0 mg/kg/injection, schedule: Q04DX003 (ip), vehicle: saline
[7] = dose: 200.0 mg/kg/injection, schedule: Q01DX001 (ip), vehicle: carboxymethylcellulose (CMC)
[8] = dose: 400.0 mg/kg/injection, schedule: Q04DX003 (ip), vehicle: Klucel (hydroxypropylcellulose) (HPC)
[9] = dose: 400.0 mg/kg/injection, schedule: Q01DX001 (ip), vehicle: carboxymethylcellulose (CMC)
[10] = dose: 200.0 mg/kg/injection, schedule: Q01DX009 (ip), vehicle: saline with Tween-80
[11] = dose: 400.0 mg/kg/injection, schedule: Q01DX009 (ip), vehicle: saline with Tween-80

In the case of O=[N+]([O-])c1[nH]c(Br)c(Br)c1Br, the survivor count (dose: 6.25 mg/kg/injection, schedule: Q01DX009 (ip), vehicle: Klucel (hydroxypropylcellulose) (HPC)) is reported as 1 of 3, the survivor count (dose: 12.5 mg/kg/injection, schedule: Q01DX009 (ip), vehicle: Klucel (hydroxypropylcellulose) (HPC)) is reported as 0 of 3 and the survivor count (dose: 25.0 mg/kg/injection, schedule: Q01DX009 (ip), vehicle: Klucel (hydroxypropylcellulose) (HPC)) is reported as 0 of 3. The survivor count (dose: 50.0 mg/kg/injection, schedule: Q01DX009 (ip), vehicle: Klucel (hydroxypropylcellulose) (HPC)) was 0 of 3, the survivor count (dose: 100.0 mg/kg/injection, schedule: Q01DX009 (ip), vehicle: Klucel (hydroxypropylcellulose) (HPC)) was 0 of 3 and the survivor count [1] was 0 of 3.

In the case of CCCCCCCCCCCCCCCCCCOC(=O)C(C(C)=O)C(c1cccc([N+](=O)[O-])c1)C(C(C)=O)C(=O)O (centres undefined), the survivor count (dose: 200.0 mg/kg/injection, schedule: Q04DX003 (ip), vehicle: saline with Tween-80) is reported as 6 of 6.

O=C(O)c1ccccc1/C=C/c1ccc([N+](=O)[O-])cc1 was tested, and the survivor count (dose: 200.0 mg/kg/injection, schedule: Q01DX001 (ip), vehicle: saline with Tween-80) was 3 of 6 and the survivor count (dose: 400.0 mg/kg/injection, schedule: Q01DX001 (ip), vehicle: saline with Tween-80) was 0 of 6.

O=C(Nc1ccc(NC(=O)c2ccc(C3=NCCN3)cc2)cc1)Nc1ccc(C2=NCCN2)cc1 was tested, and the T/C (dose: 12.5 mg/kg/injection, schedule: Q01DX Z (ip), vehicle: carboxymethylcellulose (CMC)) was 127 % of control, the survivor count (dose: 225.0 mg/kg/injection, schedule: Q01DX Z (ip), vehicle: carboxymethylcellulose (CMC)) was 6 of 6 and the survivor count (dose: 500.0 mg/kg/injection, schedule: Q01DX Z (ip), vehicle: carboxymethylcellulose (CMC)) was 1 of 6.

With C=CCOC(=O)Nc1ccccc1 the survivor count (dose: 400.0 mg/kg/injection, schedule: Q01DX001 (ip), vehicle: Klucel (hydroxypropylcellulose) (HPC)) was 3 of 3.

CC(C)(C)c1cc(C#N)cc(Br)c1O was tested, and the survivor count (dose: 200.0 mg/kg/injection, schedule: Q04DX002 (ip), vehicle: saline with Tween-80) was 2 of 3 and the survivor count [2] was 0 of 3.

With C[n+]1ccc(/C=C/Nc2cccc(N)n2)cc1 the survivor count [3] was 1 of 6.

For CS(=O)(=O)OCC(=O)NCCNC(=O)COS(C)(=O)=O, the T/C (dose: 66.6 mg/kg/injection, schedule: Q01DX Z (ip), vehicle: carboxymethylcellulose (CMC)) was 130 % of control, the T/C (dose: 70.0 mg/kg/injection, schedule: Q01DX Z (ip), vehicle: carboxymethylcellulose (CMC)) was 139 % of control and the T/C (dose: 80.0 mg/kg/injection, schedule: Q01DX009 (ip), vehicle: saline) was 139 % of control. The T/C (dose: 100.0 mg/kg/injection, schedule: Q01DX015 (ip), vehicle: saline) was 127 % of control, the T/C (dose: 100.0 mg/kg/injection, schedule: Q01DX Z (ip), vehicle: carboxymethylcellulose (CMC)) was 132 % of control and the T/C (dose: 120.0 mg/kg/injection, schedule: Q01DX009 (ip), vehicle: saline) was 141 % of control. For the same molecule, the T/C (dose: 180.0 mg/kg/injection, schedule: Q01DX009 (ip), vehicle: saline) was 145 % of control, the T/C (dose: 200.0 mg/kg/injection, schedule: Q01DX Z (ip), vehicle: saline) was 135 % of control and the T/C (dose: 400.0 mg/kg/injection, schedule: Q01DX015 (ip), vehicle: saline) was 132 % of control. The T/C (dose: 400.0 mg/kg/injection, schedule: Q04DX003 (ip), vehicle: carboxymethylcellulose (CMC)) was 143 % of control, the T/C [4] was 136 % of control [5 of 6 alive] and the survivor count [4] was 1 of 6 and 2 of 6. For the same molecule, the survivor count (dose: 600.0 mg/kg/injection, schedule: Q01DX Z (ip), vehicle: carboxymethylcellulose (CMC)) was 1 of 6, the T/C (dose: 600.0 mg/kg/injection, schedule: Q04DX003 (ip), vehicle: saline) was 133 % of control [5 of 6 alive] and the survivor count (dose: 800.0 mg/kg/injection, schedule: Q01DX009 (ip), vehicle: saline) was 1 of 6. The T/C (dose: 1200.0 mg/kg/injection, schedule: Q04DX003 (ip), vehicle: saline) was 136 % of control.

With C1CCC2[N-]CC3CCCCC3[N-]CC3CCCCC3[N-]CC3CCCCC3[N-]CC2C1.[Cu] (centres undefined) the survivor count (dose: 200.0 mg/kg/injection, schedule: Q01DX001 (ip), vehicle: Klucel (hydroxypropylcellulose) (HPC)) was 0 of 3.

CC[N+](C)(CC)CCOc1cc(C)ccc1C(C)C was tested, and the survivor count [5] was 0 of 6.

With CCCCN1CCCC(O)C1 (centres undefined) the survivor count [6] was 0 of 6.

For O=[N+]([O-])c1ccc(-c2cccc3ccccc23)c([N+](=O)[O-])c1, the survivor count [7] was 4 of 4.

With NCCc1cn(C2OC(CO)C(O)C(O)C2O)c2ccccc12 (centres undefined) the survivor count (dose: 50.0 mg/kg/injection, schedule: Q01DX005 (ip), vehicle: saline) was 4 of 4.

For C[n+]1ccc(/C=C/c2ccc(Cl)c(Cl)c2)cc1, the survivor count (dose: 25.0 mg/kg/injection, schedule: Q04DX003 (ip), vehicle: Klucel (hydroxypropylcellulose) (HPC)) was 1 of 6, the survivor count (dose: 50.0 mg/kg/injection, schedule: Q04DX003 (ip), vehicle: Klucel (hydroxypropylcellulose) (HPC)) was 0 of 6 and the survivor count (dose: 100.0 mg/kg/injection, schedule: Q04DX003 (ip), vehicle: Klucel (hydroxypropylcellulose) (HPC)) was 0 of 6. For the same molecule, the survivor count (dose: 200.0 mg/kg/injection, schedule: Q04DX003 (ip), vehicle: Klucel (hydroxypropylcellulose) (HPC)) was 0 of 6 and the survivor count [8] was 0 of 6.

c1ccc(CNNCc2ccccc2)cc1 was tested, and the survivor count (dose: 300.0 mg/kg/injection, schedule: Q01DX009 (ip), vehicle: Klucel (hydroxypropylcellulose) (HPC)) was 3 of 6 and the survivor count [8] was 5 of 6.

For CCOC(=O)N1C=Cn2c(cnc2C)C1OCC (centres undefined), the survivor count [6] was 2 of 6.

With CC1CCCC2=[N+]1CCCC2 (centres undefined) the survivor count [9] was 1 of 4.

In the case of CC(/C(=N\N=C(N)N)c1ccccc1)N(C)C (centres undefined), the survivor count (dose: 200.0 mg/kg/injection, schedule: Q01DX Z (oral), vehicle: methylcellulose (MC)) is reported as 2 of 6, the survivor count (dose: 250.0 mg/kg/injection, schedule: Q01DX Z (ip), vehicle: methylcellulose (MC)) is reported as 0 of 6 and the survivor count (dose: 375.0 mg/kg/injection, schedule: Q01DX Z (ip), vehicle: methylcellulose (MC)) is reported as 0 of 6. The survivor count (dose: 400.0 mg/kg/injection, schedule: Q01DX Z (oral), vehicle: methylcellulose (MC)) was 2 of 6 and the survivor count (dose: 500.0 mg/kg/injection, schedule: Q01DX Z (ip), vehicle: methylcellulose (MC)) was 0 of 6.

COC(=O)C1OC1(C)c1ccc(C)cc1 (centres undefined) was tested, and the survivor count [10] was 3 of 3.

C[N+](C)(C)c1ccc(/C=N\O)cc1 was tested, and the survivor count (dose: 25.0 mg/kg/injection, schedule: Q04DX003 (ip), vehicle: saline) was 0 of 6, the survivor count (dose: 100.0 mg/kg/injection, schedule: Q04DX003 (ip), vehicle: saline) was 0 of 6 and the survivor count [5] was 0 of 6. The survivor count [6] was 0 of 6.

For O=C(O)C1Cc2ccccc2CN1 (centres undefined), the survivor count [10] was 0 of 6 and the survivor count [11] was 0 of 6.

With O=C(O)c1cccc(F)c1CBr the survivor count (dose: 150.0 mg/kg/injection, schedule: Q01DX001 (ip), vehicle: carboxymethylcellulose (CMC)) was 2 of 6 and the survivor count (dose: 300.0 mg/kg/injection, schedule: Q01DX001 (ip), vehicle: carboxymethylcellulose (CMC)) was 1 of 6.

COc1ccc(CCNCC(O)CSc2cccc(C)c2)cc1OC (centres undefined) was tested, and the survivor count [3] was 0 of 6.

For O=C(/C=C/c1ccccc1)NC(=S)Nc1ccc(O)cc1, the survivor count [11] was 1 of 3 and the survivor count [2] was 1 of 3.

For C[N+](C)(C)/N=C/c1ccc(Cl)cc1, the survivor count (dose: 50.0 mg/kg/injection, schedule: Q01DX001 (ip), vehicle: carboxymethylcellulose (CMC)) was 2 of 4, the survivor count (dose: 80.0 mg/kg/injection, schedule: Q01DX001 (ip), vehicle: carboxymethylcellulose (CMC)) was 2 of 4 and the survivor count (dose: 100.0 mg/kg/injection, schedule: Q01DX001 (ip), vehicle: carboxymethylcellulose (CMC)) was 2 of 4. The survivor count [7] was 0 of 4 and the survivor count [9] was 0 of 4.

In the case of CC(=O)N(C)c1cc2c3c(c1)CCCN3CCC2, the survivor count [1] is reported as 3 of 6.
